Measurements reported in PubChem BioAssay AID1508588 (Peter MacCallum Cancer Centre, 2020)
Screen: 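Knock-downs boosting vemurafenib effects on melanoma cell growth or lactate release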 (primary screen). Cell system: human WM266.4 melanoma cells (BRAF V600 mutant). Knock-down reagent: siRNA pool against human genes, 40 nM. Time to read-out: 96 h from transfection to read-out. Conditions: vemurafenib 300 nM (about IC25), added 48 h after transfection, for 48 h; comparison arm got DMSO vehicle only. Detection: 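Cell gain (DAPI nuclei at end minus before drug, mean of two replicates) and medium lactate by absorbance per cell, both as ratio to non-targeting siRNA, also grouped into fold-change classes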. Reading the numbers: cell gain with vemurafenib: higher = more cell gain than with non-targeting siRNA; lactate per cell with vemurafenib: higher = more lactate made per cell. Active means: 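a knock-down counts as enhancing when its fold-change classes with vehicle and with vemurafenib, taken together, show a stronger drug effect on cell gain or lactate per cell; exact class pairs not stated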. Calls: active = enhances vemurafenib effect; inactive = no enhancement seen.
The deposit covers about 18,000 reagents; this is a part drawn at random. 790 of all reagents (4.4%) were called active. 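Calls rest on a combination of fold-change classes in drug and vehicle arms, not all shown here.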 Some reagents were tested in more than one well and are listed for each.

| gene symbol | cell gain with vemurafenib | lactate per cell with vemurafenib | outcome |
| --- | --- | --- | --- |
| NR3C1 (GeneID 2908) | 1.01 | 0.72 | inactive |
| PASD1 (GeneID 139135) | 0.75 | 0.86 | inactive |
| NDUFB7 (GeneID 4713) | 0.35 | 1.23 | inactive |
| OR5AN1 (GeneID 390195) | 0.24 | 0.53 | inactive |
| SLC38A9 (GeneID 153129) | 0.84 | 0.6 | inactive |
| MIX23 (GeneID 131076) | 0.44 | 1.4 | inactive |
| SORBS2 (GeneID 8470) | 0.84 | 0.88 | inactive |
| SH2B1 (GeneID 25970) | 0.41 | 1.19 | inactive |
| TBX18 (GeneID 9096) | 0.74 | 0.74 | inactive |
| CAND2 (GeneID 23066) | 0.56 | 1.18 | inactive |
| KLHDC9 (GeneID 126823) | 0.62 | 0.7 | inactive |
| SLITRK4 (GeneID 139065) | 0.89 | 0.55 | inactive |
| ARAF (GeneID 369) | 0.67 | 0.8 | inactive |
| PIGS (GeneID 94005) | 0.66 | 0.72 | inactive |
| FBXO4 (GeneID 26272) | 0.63 | 0.66 | inactive |
| SEC23A (GeneID 10484) | 0.71 | 1 | inactive |
| RABL2A (GeneID 11159) | 0.68 | 0.78 | inactive |
| UBR5 (GeneID 51366) | 0.28 | 0.39 | inactive |
| GLRB (GeneID 2743) | 0.6 | 0.54 | inactive |
| NTF3 (GeneID 4908) | 0.01 | 1.54 | inactive |
| ETV5 (GeneID 2119) | 0.77 | 0.71 | inactive |
| PATL1 (GeneID 219988) | 0.15 | 1.01 | active |
| GAS1 (GeneID 2619) | 0.42 | 1.39 | inactive |
| PPCS (GeneID 79717) | 0.63 | 0.65 | inactive |
| TLR3 (GeneID 7098) | 0.32 | 0.92 | inactive |
| MLIP (GeneID 90523) | 0.21 | 1.62 | inactive |
| ARHGAP26 (GeneID 23092) | 0.46 | 0.96 | inactive |
| CAPN2 (GeneID 824) | 0.44 | 1.05 | inactive |
| SLC35G2 (GeneID 80723) | 0.53 | 0.82 | inactive |
| FAM13A (GeneID 10144) | 0.43 | 1.14 | inactive |
| PEX7 (GeneID 5191) | 0.9 | 0.73 | inactive |
| SLC25A52 (GeneID 147407) | 0.02 | 1.33 | inactive |
| CCDC140 (GeneID 151278) | 0.61 | 1.7 | inactive |
| ZNF581 (GeneID 51545) | 0.41 | 1.02 | inactive |
| RNF13 (GeneID 11342) | 1.07 | 0.35 | inactive |
| RNF13 (GeneID 11342) | 1.03 | 0.89 | inactive |
| CRIPAK (retired record) (GeneID 285464) | 0.76 | 0.96 | inactive |
| BRCA2 (GeneID 675) | 0.75 | 0.74 | inactive |
| IRF2BP2 (GeneID 359948) | 0.41 | 1.16 | inactive |
| PSMB2 (GeneID 5690) | -0.02 | 2.09 | inactive |
| CARD10 (GeneID 29775) | 0.54 | 0.6 | inactive |
| ING5 (GeneID 84289) | 0.75 | 0.48 | active |
| IFT80 (GeneID 57560) | 0.46 | 0.62 | inactive |
| KCNK6 (GeneID 9424) | 0.5 | 0.42 | active |
| ABCG8 (GeneID 64241) | 1.07 | 0.51 | inactive |
| LZTR1 (GeneID 8216) | 0.62 | 0.74 | inactive |
| MAP7D1 (GeneID 55700) | 0.46 | 0.64 | inactive |
| FAM78A (GeneID 286336) | -0.06 | 2.17 | inactive |
| MTMR1 (GeneID 8776) | 0.86 | 1.06 | inactive |
| ATP2B2 (GeneID 491) | 0.28 | 0.66 | inactive |
| LOC652859 (retired record) (GeneID 652859) | 1.05 | 0.82 | inactive |
| TMEM135 (GeneID 65084) | 0.22 | 1.09 | inactive |
| CETP (GeneID 1071) | 0.87 | 0.84 | inactive |
| HLA-DOB (GeneID 3112) | 0.81 | 0.7 | inactive |
| PEX1 (GeneID 5189) | 0.74 | 1.1 | inactive |
| CA11 (GeneID 770) | 1.16 | 1.02 | inactive |
| ISL2 (GeneID 64843) | 0.41 | 0.62 | inactive |
